No constants are given. Whether binding was seen depends on the method and setting. Binding seen in cells or lysates may run through a third protein. These calls come from enrichment with a bait or labelling near it, and not all partners need be listed. Where a sequence is shown, tags or fusion partners need not be part of it.
Target: estrogen receptor alpha (ER) (human (endogenous in MCF-7 and ZR-75)) (UniProt P03372)
Test: affinity purification with mass spectrometry; anti-ER antibody (Santa Cruz sc-8002) on Dynabeads Protein G, 1.5 mg lysate of MCF-7 or ZR-75 cells overnight at 4°C; cells starved, vehicle or 10 µM ERX-11 for 2 hr, then 10 nM E2 for 2 hr; the named proteins are ER binders whose co-precipitation was disrupted by ERX-11

Sequences of proteins named here, by UniProt entry; tags and fusion partners are left off.
UniProt P03372: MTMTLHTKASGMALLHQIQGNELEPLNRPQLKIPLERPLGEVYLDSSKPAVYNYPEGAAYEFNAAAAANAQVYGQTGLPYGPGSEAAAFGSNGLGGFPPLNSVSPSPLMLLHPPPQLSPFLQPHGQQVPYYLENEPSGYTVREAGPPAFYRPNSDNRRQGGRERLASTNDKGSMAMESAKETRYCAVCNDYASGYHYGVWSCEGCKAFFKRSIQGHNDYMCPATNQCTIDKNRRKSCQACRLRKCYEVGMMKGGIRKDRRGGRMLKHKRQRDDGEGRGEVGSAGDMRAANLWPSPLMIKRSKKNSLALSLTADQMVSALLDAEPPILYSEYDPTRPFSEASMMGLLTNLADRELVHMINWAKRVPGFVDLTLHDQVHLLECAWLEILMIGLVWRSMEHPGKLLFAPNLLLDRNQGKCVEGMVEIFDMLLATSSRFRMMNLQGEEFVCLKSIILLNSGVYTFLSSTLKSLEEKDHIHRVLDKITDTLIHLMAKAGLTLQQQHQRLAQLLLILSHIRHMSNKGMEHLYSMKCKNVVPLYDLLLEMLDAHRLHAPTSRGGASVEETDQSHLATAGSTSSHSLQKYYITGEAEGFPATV

binding | Binder
binds | PFKL (protein, UniProt P17858 1-780) MAAVDLEKLRASGAGKAIGVLTSGGDAQGMNAAVRAVTRMGIYVGAKVFLIYEGYEGLVEGGENIKQANWLSVSNIIQLGGTIIGSARCKAFTTREGRRAAAYNLVQHGITNLCVIGGDGSLTGANIFRSEWGSLLEELVAEGKISETTARTYSHLNIAGLVGSIDNDFCGTDMTIGTDSALHRIMEVIDAITTTAQSHQRTFVLEVMGRHCGYLALVSALASGADWLFIPEAPPEDGWENFMCERLGETRSRGSRLNIIIIAEGAIDRNGKPISSSYVKDLVVQRLGFDTRVTVLGHVQRGGTPSAFDRILSSKMGMEAVMALLEATPDTPACVVTLSGNQSVRLPLMECVQMTKEVQKAMDDKRFDEATQLRGGSFENNWNIYKLLAHQKPPKEKSNFSLAILNVGAPAAGMNAAVRSAVRTGISHGHTVYVVHDGFEGLAKGQVQEVGWHDVAGWLGRGGSMLGTKRTLPKGQLESIVENIRIYGIHALLVVGGFEAYEGVLQLVEARGRYEELCIVMCVIPATISNNVPGTDFSLGSDTAVNAAMESCDRIKQSASGTKRRVFIVETMGGYCGYLATVTGIAVGADAAYVFEDPFNIHDLKVNVEHMTEKMKTDIQRGLVLRNEKCHDYYTTEFLYNLYSSEGKGVFDCRTNVLGHLQQGGAPTPFDRNYGTKLGVKAMLWLSEKLREVYRKGRVFANAPDSACVIGLKKKAVAFSPVTELKKDTDFEHRMPREQWWLSLRLMLKMLAQYRISMAAYVSGELEHVTRRTLSMDKGF
binds | PFKM (protein, UniProt P08237 1-780) MTHEEHHAAKTLGIGKAIAVLTSGGDAQGMNAAVRAVVRVGIFTGARVFFVHEGYQGLVDGGDHIKEATWESVSMMLQLGGTVIGSARCKDFREREGRLRAAYNLVKRGITNLCVIGGDGSLTGADTFRSEWSDLLSDLQKAGKITDEEATKSSYLNIVGLVGSIDNDFCGTDMTIGTDSALHRIMEIVDAITTTAQSHQRTFVLEVMGRHCGYLALVTSLSCGADWVFIPECPPDDDWEEHLCRRLSETRTRGSRLNIIIVAEGAIDKNGKPITSEDIKNLVVKRLGYDTRVTVLGHVQRGGTPSAFDRILGSRMGVEAVMALLEGTPDTPACVVSLSGNQAVRLPLMECVQVTKDVTKAMDEKKFDEALKLRGRSFMNNWEVYKLLAHVRPPVSKSGSHTVAVMNVGAPAAGMNAAVRSTVRIGLIQGNRVLVVHDGFEGLAKGQIEEAGWSYVGGWTGQGGSKLGTKRTLPKKSFEQISANITKFNIQGLVIIGGFEAYTGGLELMEGRKQFDELCIPFVVIPATVSNNVPGSDFSVGADTALNTICTTCDRIKQSAAGTKRRVFIIETMGGYCGYLATMAGLAAGADAAYIFEEPFTIRDLQANVEHLVQKMKTTVKRGLVLRNEKCNENYTTDFIFNLYSEEGKGIFDSRKNVLGHMQQGGSPTPFDRNFATKMGAKAMNWMSGKIKESYRNGRIFANTPDSGCVLGMRKRALVFQPVAELKDQTDFEHRIPKEQWWLKLRPILKILAKYEIDLDTSDHAHLEHITRKRSGEAAV
binds | LONP1 (protein, UniProt P36776 68-959) FWEASSRGGGAFSGGEDASEGGAEEGAGGAGGSAGAGEGPVITALTPMTIPDVFPHLPLIAITRNPVFPRFIKIIEVKNKKLVELLRRKVRLAQPYVGVFLKRDDSNESDVVESLDEIYHTGTFAQIHEMQDLGDKLRMIVMGHRRVHISRQLEVEPEEPEAENKHKPRRKSKRGKKEAEDELSARHPAELAMEPTPELPAEVLMVEVENVVHEDFQVTEEVKALTAEIVKTIRDIIALNPLYRESVLQMMQAGQRVVDNPIYLSDMGAALTGAESHELQDVLEETNIPKRLYKALSLLKKEFELSKLQQRLGREVEEKIKQTHRKYLLQEQLKIIKKELGLEKDDKDAIEEKFRERLKELVVPKHVMDVVDEELSKLGLLDNHSSEFNVTRNYLDWLTSIPWGKYSNENLDLARAQAVLEEDHYGMEDVKKRILEFIAVSQLRGSTQGKILCFYGPPGVGKTSIARSIARALNREYFRFSVGGMTDVAEIKGHRRTYVGAMPGKIIQCLKKTKTENPLILIDEVDKIGRGYQGDPSSALLELLDPEQNANFLDHYLDVPVDLSKVLFICTANVTDTIPEPLRDRMEMINVSGYVAQEKLAIAERYLVPQARALCGLDESKAKLSSDVLTLLIKQYCRESGVRNLQKQVEKVLRKSAYKIVSGEAESVEVTPENLQDFVGKPVFTVERMYDVTPPGVVMGLAWTAMGGSTLFVETSLRRPQDKDAKGDKDGSLEVTGQLGEVMKESARIAYTFARAFLMQHAPANDYLVTSHIHLHVPEGATPKDGPSAGCTIVTALLSLAMGRPVRQNLAMTGEVSLTGKILPVGGIKEKTIAAKRAGVTCIVLPAENKKDFYDLAAFITEGLEVHFVEHYREIFDIAFPDEQAEALAVER
binds | GTF3C4 (protein, UniProt Q9UKN8 1-822) MNTADQARVGPADDGPAPSGEEEGEGGGEAGGKEPAADAAPGPSAAFRLMVTRREPAVKLQYAVSGLEPLAWSEDHRVSVSTARSIAVLELICDVHNPGQDLVIHRTSVPAPLNSCLLKVGSKTEVAECKEKFAASKDPTVSQTFMLDRVFNPEGKALPPMRGFKYTSWSPMGCDANGRCLLAALTMDNRLTIQANLNRLQWVQLVDLTEIYGERLYETSYRLSKNEAPEGNLGDFAEFQRRHSMQTPVRMEWSGICTTQQVKHNNECRDVGSVLLAVLFENGNIAVWQFQLPFVGKESISSCNTIESGITSPSVLFWWEYEHNNRKMSGLIVGSAFGPIKILPVNLKAVKGYFTLRQPVILWKEMDQLPVHSIKCVPLYHPYQKCSCSLVVAARGSYVFWCLLLISKAGLNVHNSHVTGLHSLPIVSMTADKQNGTVYTCSSDGKVRQLIPIFTDVALKFEHQLIKLSDVFGSVRTHGIAVSPCGAYLAIITTEGMINGLHPVNKNYQVQFVTLKTFEEAAAQLLESSVQNLFKQVDLIDLVRWKILKDKHIPQFLQEALEKKIESSGVTYFWRFKLFLLRILYQSMQKTPSEALWKPTHEDSKILLVDSPGMGNADDEQQEEGTSSKQVVKQGLQERSKEGDVEEPTDDSLPTTGDAGGREPMEEKLLEIQGKIEAVEMHLTREHMKRVLGEVYLHTWITENTSIPTRGLCNFLMSDEEYDDRTARVLIGHISKKMNKQTFPEHCSLCKEILPFTDRKQAVCSNGHIWLRCFLTYQSCQSLIYRRCLLHDSIARHPAPEDPDWIKRLLQSPCPFCDSPVF
binds | LUC7L3 (protein, UniProt O95232 1-432) MISAAQLLDELMGRDRNLAPDEKRSNVRWDHESVCKYYLCGFCPAELFTNTRSDLGPCEKIHDENLRKQYEKSSRFMKVGYERDFLRYLQSLLAEVERRIRRGHARLALSQNQQSSGAAGPTGKNEEKIQVLTDKIDVLLQQIEELGSEGKVEEAQGMMKLVEQLKEERELLRSTTSTIESFAAQEKQMEVCEVCGAFLIVGDAQSRVDDHLMGKQHMGYAKIKATVEELKEKLRKRTEEPDRDERLKKEKQEREEREKEREREREERERKRRREEEEREKERARDRERRKRSRSRSRHSSRTSDRRCSRSRDHKRSRSRERRRSRSRDRRRSRSHDRSERKHRSRSRDRRRSKSRDRKSYKHRSKSRDREQDRKSKEKEKRGSDDKKSSVKSGSREKQSEDTNTESKESDTKNEVNGTSEDIKSEGDTQSN
binds | PFKP (protein, UniProt Q01813 1-784) MDADDSRAPKGSLRKFLEHLSGAGKAIGVLTSGGDAQGMNAAVRAVVRMGIYVGAKVYFIYEGYQGMVDGGSNIAEADWESVSSILQVGGTIIGSARCQAFRTREGRLKAACNLLQRGITNLCVIGGDGSLTGANLFRKEWSGLLEELARNGQIDKEAVQKYAYLNVVGMVGSIDNDFCGTDMTIGTDSALHRIIEVVDAIMTTAQSHQRTFVLEVMGRHCGYLALVSALACGADWVFLPESPPEEGWEEQMCVKLSENRARKKRLNIIIVAEGAIDTQNKPITSEKIKELVVTQLGYDTRVTILGHVQRGGTPSAFDRILASRMGVEAVIALLEATPDTPACVVSLNGNHAVRLPLMECVQMTQDVQKAMDERRFQDAVRLRGRSFAGNLNTYKRLAIKLPDDQIPKTNCNVAVINVGAPAAGMNAAVRSAVRVGIADGHRMLAIYDGFDGFAKGQIKEIGWTDVGGWTGQGGSILGTKRVLPGKYLEEIATQMRTHSINALLIIGGFEAYLGLLELSAAREKHEEFCVPMVMVPATVSNNVPGSDFSIGADTALNTITDTCDRIKQSASGTKRRVFIIETMGGYCGYLANMGGLAAGADAAYIFEEPFDIRDLQSNVEHLTEKMKTTIQRGLVLRNESCSENYTTDFIYQLYSEEGKGVFDCRKNVLGHMQQGGAPSPFDRNFGTKISARAMEWITAKLKEARGRGKKFTTDDSICVLGISKRNVIFQPVAELKKQTDFEHRIPKEQWWLKLRPLMKILAKYKASYDVSDSGQLEHVQPWSV
binds | DARS (protein, UniProt P14868 1-501) MPSASASRKSQEKPREIMDAAEDYAKERYGISSMIQSQEKPDRVLVRVRDLTIQKADEVVWVRARVHTSRAKGKQCFLVLRQQQFNVQALVAVGDHASKQMVKFAANINKESIVDVEGVVRKVNQKIGSCTQQDVELHVQKIYVISLAEPRLPLQLDDAVRPEAEGEEEGRATVNQDTRLDNRVIDLRTSTSQAVFRLQSGICHLFRETLINKGFVEIQTPKIISAASEGGANVFTVSYFKNNAYLAQSPQLYKQMCICADFEKVFSIGPVFRAEDSNTHRHLTEFVGLDIEMAFNYHYHEVMEEIADTMVQIFKGLQERFQTEIQTVNKQFPCEPFKFLEPTLRLEYCEALAMLREAGVEMGDEDDLSTPNEKLLGHLVKEKYDTDFYILDKYPLAVRPFYTMPDPRNPKQSNSYDMFMRGEEILSGAQRIHDPQLLTERALHHGIDLEKIKAYIDSFRFGAPPHAGGGIGLERVTMLFLGLHNVRQTSMFPRDPKRLTP
binds | FKBP4 (protein, UniProt Q02790 1-459) MTAEEMKATESGAQSAPLPMEGVDISPKQDEGVLKVIKREGTGTEMPMIGDRVFVHYTGWLLDGTKFDSSLDRKDKFSFDLGKGEVIKAWDIAIATMKVGEVCHITCKPEYAYGSAGSPPKIPPNATLVFEVELFEFKGEDLTEEEDGGIIRRIQTRGEGYAKPNEGAIVEVALEGYYKDKLFDQRELRFEIGEGENLDLPYGLERAIQRMEKGEHSIVYLKPSYAFGSVGKEKFQIPPNAELKYELHLKSFEKAKESWEMNSEEKLEQSTIVKERGTVYFKEGKYKQALLQYKKIVSWLEYESSFSNEEAQKAQALRLASHLNLAMCHLKLQAFSAAIESCNKALELDSNNEKGLFRRGEAHLAVNDFELARADFQKVLQLYPNNKAAKTQLAVCQQRIRRQLAREKKLYANMFERLAEEENKAKAEASSGDHPTDTEMKEEQKSNTAGSQSQVETEA

Source: PMC5548489
